Assay results from article PMC13068435.
Results are given in words; binding and its absence hold for the method and conditions named. In cells and extracts the contact can be indirect. These calls come from enrichment with a bait or labelling near it, and not all partners need be listed.

Chains of the proteins cited; added tags and fusions are not shown. Residues count along the entry.
UniProt Q9ULT6, residues 56-936: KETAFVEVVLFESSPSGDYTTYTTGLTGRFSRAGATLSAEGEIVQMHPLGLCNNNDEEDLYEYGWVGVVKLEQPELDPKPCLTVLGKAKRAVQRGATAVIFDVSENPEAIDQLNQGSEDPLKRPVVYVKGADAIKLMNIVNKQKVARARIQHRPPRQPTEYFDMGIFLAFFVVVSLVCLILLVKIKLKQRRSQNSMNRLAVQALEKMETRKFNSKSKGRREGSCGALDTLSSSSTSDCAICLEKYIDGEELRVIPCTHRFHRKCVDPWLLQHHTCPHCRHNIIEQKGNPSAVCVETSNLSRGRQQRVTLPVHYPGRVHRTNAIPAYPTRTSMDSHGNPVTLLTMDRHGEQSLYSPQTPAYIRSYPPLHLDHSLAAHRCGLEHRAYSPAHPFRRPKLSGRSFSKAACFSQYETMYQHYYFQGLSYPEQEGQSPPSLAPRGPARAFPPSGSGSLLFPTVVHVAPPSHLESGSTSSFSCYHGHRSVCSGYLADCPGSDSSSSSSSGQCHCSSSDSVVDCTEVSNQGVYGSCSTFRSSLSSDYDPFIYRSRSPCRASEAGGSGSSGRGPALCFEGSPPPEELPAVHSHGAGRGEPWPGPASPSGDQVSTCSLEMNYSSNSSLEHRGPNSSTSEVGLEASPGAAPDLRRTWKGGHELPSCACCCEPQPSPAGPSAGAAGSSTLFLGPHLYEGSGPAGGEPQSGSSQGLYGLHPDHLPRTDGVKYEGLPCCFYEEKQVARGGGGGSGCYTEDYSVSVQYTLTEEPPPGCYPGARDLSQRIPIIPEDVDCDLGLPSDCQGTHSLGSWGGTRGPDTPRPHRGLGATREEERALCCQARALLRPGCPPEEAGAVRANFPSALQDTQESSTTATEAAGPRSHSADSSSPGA

Target: Endogenous EGFR of BGC823 cells (human (endogenous in BGC823)) (UniProt P00533)
Assay: affinity purification with mass spectrometry; BGC823 cells starved overnight, 50 ng/ml EGF for 0 or 120 min; 1 mg lysate with 5 µg EGFR (Ab-13) antibody, protein A-Sepharose, washed with NETN buffer; LC-MS/MS

- binding: binds
Substance: Endogenous ZNRF3 of BGC823 cells (from UniProt Q9ULT6 56-936) (enzyme)
